Source: paper PMC10443802 (JCI Insight, 2023)
Counter-ions that a name gives are not always drawn. Where a SMILES comes first, the peptide text is derived from it.

Tested on: OATP1B2
Test: Untargeted metabolomics of plasma and DRG, WT vs OATP1B2-deficient mice
Assay type: in vivo, mouse
Settings: untargeted metabolomics, WT vs OATP1B2-deficient mice
[1] = Figure 5B source data (volcano plot), log2 fold change of metabolite level
[2] = supplement sheet "Figure 5B" (volcano plot)

Row | Compound | Log2FoldChange [1] | Log2FoldChange (sheet "Figure 5C") | Log2FoldChange [2] | Log2FoldChange (supplement sheet "Figure 5B")
1 | CC/C=C\C/C=C\C/C=C\C/C=C\CCCCC(=O)O [stearidonate (18:4n3)] | -0.3219 | 0.02857 | – | –
2 | CCCCC/C=C\C/C=C\CCCCCCCCCC(=O)O [dihomo-linoleate (20:2n6)] | – | 0.4436 | – | –
3 | CCCCCCCCC/C=C/CC/C=C/[C@@H](O)[C@@H](N)CO [sphingadienine] | – | 0.3448 | 0.6781 | –
4 | C[C@@H](O)[C@@H](O)C(=O)O [2R,3R-dihydroxybutyrate] | – | -0.4344 | – | -0.08927
5 | COC(=O)Cc1c[nH]c2ccccc12 [methyl indole-3-acetate] | -0.4739 | – | – | –
6 | C[N+](C)(C)CC(CC(=O)[O-])OC(=O)Cc1ccccc1 (centres unmarked) [phenylacetylcarnitine] | – | – | 0.7485 | –
7 | CCCC(O)CC(=O)OC(CC(=O)[O-])C[N+](C)(C)C (centres unmarked) [3-hydroxyhexanoylcarnitine (1)] | – | 0.05658 | – | –
8 | CN(C)c1nc2c(ncn2[C@@H]2O[C@H](CO)[C@@H](O)[C@H]2O)c(=O)[nH]1 [N2,N2-dimethylguanosine] | – | 0.4751 | – | -0.074
9 | CCCCC/C=C\C/C=C\CCCCCCCC(=O)OC[C@@H](O)COP(=O)(O)OC1[C@H](O)[C@H](O)C(O)[C@H](O)[C@H]1O (some centres unmarked) [1-linoleoyl-GPI (18:2)*] | – | 0.7485 | 0.7225 | –
10 | CCC(C)C(=O)NCC(=O)O (centres unmarked) [2-methylbutyrylglycine] | – | – | 0.4751 | –
11 | CCCCCCCCCCCCCCCC/C=C\OC[C@@H](O)COP(=O)(O)OCCN [1-(1-enyl-stearoyl)-GPE (P-18:0)*] | – | – | 0.7824 | –
12 | CCCCCCCCCCCCC/C=C/C(O)C(CO)NC(=O)CCCCCCCCCCCCCCC (centres unmarked) [N-palmitoyl-sphingosine (d18:1/16:0)] | – | -0.3585 | – | 0.111
13 | CC(=O)O.NC(CO)(CO)CO [trizma acetate] | – | 1.546 | – | –
14 | C[n+]1cccc(C(N)=O)c1 [1-methylnicotinamide] | -0.2345 | -0.074 | – | –
15 | CCCCC/C=C\C/C=C\CCCCCCCC(=O)O[C@H](CC(=O)[O-])C[N+](C)(C)C [linoleoylcarnitine (C18:2)*] | – | 0.3785 | 0.696 | –
16 | CCCCC/C=C\C/C=C\C/C=C\C/C=C\CCCC(=O)OC[C@@H](O)COP(=O)(O)OCCN [1-arachidonoyl-GPE (20:4n6)*] | – | 0.2265 | 0.5753 | –
17 | Cc1cn([C@H]2C[C@H](O)[C@@H](CO)O2)c(=O)nc1N [5-methyl-2'-deoxycytidine] | – | 0.275 | 0.8718 | –
18 | CC(C)CC(=O)C(=O)O [4-methyl-2-oxopentanoate] | – | -0.1047 | – | -0.1361
19 | CCCCCCCC(=O)O[C@H](CC(=O)O)C[N+](C)(C)C [octanoylcarnitine (C8)] | – | 0.9709 | 0.696 | –
20 | COc1ccc(OS(=O)(=O)O)cc1 [4-methoxyphenol sulfate] | – | – | – | -0.0145
21 | CCCCC/C=C\C/C=C\CCCCCCCC(=O)O[C@H](COC(=O)CCCCCCCCCCCCCCC)COP(=O)(O)OCCN [1-palmitoyl-2-linoleoyl-GPE (16:0/18:2)] | – | -0.2176 | – | 0.1763
22 | CCCCCCCCCCCCCC(=O)O[C@H](CC(=O)[O-])C[N+](C)(C)C [myristoylcarnitine (C14)] | – | – | 0.4751 | –
23 | N[C@@H](CCO)C(=O)O [homoserine] | -0.5564 | – | – | –
24 | CCCCC/C=C\C/C=C\CCCCCCCC(=O)O[C@H](CO/C=C\CCCCCCCCCCCCCC)COP(=O)([O-])OCC[N+](C)(C)C | – | -0.08927 | 0.3103 | –
25 | CCCCCCCCCCCCCCCCCC(=O)NCCS(=O)(=O)O [N-stearoyltaurine] | – | 0.4005 | – | 0.08406

Row | Compound | Log2FoldChange [1] | Log2FoldChange (sheet "Figure 5C") | Log2FoldChange [2] | Log2FoldChange (supplement sheet "Figure 5B")
26 | CC(C)[C@H](N)C(=O)N[C@@H](CCC(N)=O)C(=O)O [valylglutamine] (H-Val-Gln-OH) | – | 0.189 | – | –
27 | CNCCCC(=O)O [N-methyl-GABA] | – | 0.3334 | – | -0.0145
28 | CCCCCCCC(=O)NCC(=O)O [N-octanoylglycine] | – | – | 0.6781 | –
29 | NC[C@H](O)CC[C@H](N)C(=O)O [5-hydroxylysine] | -0.2009 | -0.1361 | – | –
30 | O=C(CO)[C@@H](O)[C@H](O)[C@H](O)CO [fructose] | – | -0.2345 | 0.251 | –
31 | OC[C@@H](O)[C@H](O)[C@H](O)[C@@H](O)CO [galactitol (dulcitol)] | – | 0.111 | – | –
32 | CCCCC/C=C\C/C=C\C/C=C\C/C=C\CCCC(=O)OCC[N+](C)(C)C [arachidonoylcholine] | – | – | – | 0.02857
33 | O=C(O)CC(C(=O)O)C(O)C(=O)O (centres unmarked) [isocitrate] | -0.1844 | – | – | –
34 | O=C(O)Cc1c[nH]c2ccc(O)cc12 [5-hydroxyindoleacetate] | -0.2176 | – | – | –
35 | C[C@@H](O)[C@H](O)C(=O)O [2S,3R-dihydroxybutyrate] | – | – | – | -0.1203
36 | CCCCCCCC/C=C\CCCCCCCC(=O)OC[C@@H](O)COP(=O)(O)OCCN [1-oleoyl-GPE (18:1)] | – | 0.08406 | 1.036 | –
37 | O=C(O)CCCCCC(=O)O [pimelate (C7-DC)] | -0.4344 | -0.074 | – | –
38 | NCCS(=O)(=O)O [taurine] | – | – | – | 0.05658
39 | N[C@@H](CCCCN[C@@H](CCC(=O)O)C(=O)O)C(=O)O [saccharopine] | – | -0.152 | – | –
40 | CSC=CC(O)C(O)C(=O)O (centres unmarked) | – | – | 0.4222 | –
41 | CC(C(=O)O)C(=O)O [methylmalonate (MMA)] | – | -0.074 | – | 0.08406
42 | O=C(O)c1c(O)c(Cl)cc(Cl)c1O [3,5-dichloro-2,6-dihydroxybenzoic acid] | -0.2009 | – | – | –
43 | COc1cc(CCC(=O)O)ccc1O [dihydroferulate] | -0.4344 | – | – | –
44 | O=C(O)[C@@H]1CCC=N1 [S-1-pyrroline-5-carboxylate] | – | 0.3785 | 0.6781 | –
45 | CCCCC/C=C\C/C=C\CCCCCCCC(=O)O[C@H](COC=CCCCCCCCCCCCCCC)COP(=O)(O)OCCN | – | -0.2345 | 0.4222 | –
46 | O=c1[nH]cnc2c1ncn2[C@H]1C[C@H](O)[C@@H](CO)O1 [2'-deoxyinosine] | – | -0.1361 | – | –
47 | N[C@@H](CCC(=O)N[C@@H](CS)C(=O)NCC(=O)O)C(=O)O [glutathione, reduced (GSH)] | – | 0.3334 | – | –
48 | O=C(O)C(=O)CC(O)C(O)CO (centres unmarked) [2-keto-3-deoxy-gluconate] | – | – | 0.3103 | –
49 | CC(C)CCC(=O)NCC(=O)O [isocaproylglycine] | – | – | 0.6508 | –
50 | CC(=O)N[C@H](C(=O)O)[C@@H](C)O [N-acetylthreonine] | – | 0.09761 | – | –

Row | Compound | Log2FoldChange [1] | Log2FoldChange (sheet "Figure 5C") | Log2FoldChange [2] | Log2FoldChange (supplement sheet "Figure 5B")
51 | Cn1cncc1C[C@H](NC(=O)CCN)C(=O)O [anserine] | – | – | 0.6041 | –
52 | O=C(O)[C@H]1O[C@@H](Oc2ccc3c(c2)OC[C@H](c2ccc(O)cc2)C3)[C@H](O)[C@@H](O)[C@@H]1O [equol glucuronide] | – | – | 0.926 | –
53 | O=C(O)CCc1cnc[nH]1 [imidazole propionate] | -1.737 | -0.415 | – | –
54 | OC[C@@H](O)[C@@H](O)[C@@H](O)CO [ribitol] | – | 0.3219 | – | 0.1375
55 | COP(=O)(O)O [methylphosphate] | – | 0.1763 | 0.3448 | –
56 | CCCCC/C=C\C/C=C\C/C=C\CCCCCCC(=O)OCC(O)CO (centres unmarked) [1-dihomo-linolenylglycerol (20:3)] | – | – | – | -0.074
57 | CC(=O)OP(=O)(O)O [acetylphosphate] | – | -0.1203 | – | –
58 | N[C@@H](CCCCNCC(=O)O)C(=O)O [N6-carboxymethyllysine] | – | 0.2265 | – | 0.02857
59 | C[S+](C)CC[C@H](N)C(=O)[O-] [S-methylmethionine] | – | – | – | -0.1047
60 | N[C@@H](CCCCNCC(=O)[C@@H](O)[C@H](O)[C@H](O)CO)C(=O)O [fructosyllysine] | – | – | – | -0.152
61 | CC(C)=CC(=O)NCC(=O)O [3-methylcrotonylglycine] | – | – | 0.3448 | –
62 | O=C(O)c1cc(=O)[nH]c(=O)[nH]1 [orotate] | – | 0.05658 | – | –
63 | CCCCCCCCC=CCCCCCCCCC(=O)O [10-nonadecenoate (19:1n9)] | – | 0.251 | – | -0.1203
64 | NC(CCCC(=O)O)C(=O)O (centres unmarked) [2-aminoadipate] | – | -0.152 | – | 0.09761
65 | CCCCC/C=C\C/C=C\C/C=C\C/C=C\CCCC(=O)O[C@H](COC(=O)CCCCCCCCCCCCCCCCC)COP(=O)(O)OCCN | – | -0.1681 | – | –
66 | O=C(O)Cc1ccccc1 [phenylacetate] | – | – | 0.4751 | –
67 | O=C(O)c1cc(=O)c2ccccc2[nH]1 [kynurenate] | – | – | 0.3219 | –
68 | CCCCC/C=C\C/C=C\CCCCCCCC(=O)OC[C@@H](O)COP(=O)(O)OCCN [1-linoleoyl-GPE (18:2)*] | – | 0.3674 | 0.9561 | –
69 | CCCCCCCCCCCCCCCCCC(=O)O [stearate (18:0)] | -0.2009 | 0 | – | –
70 | O=C(O)C(=O)Cc1ccccc1 [phenylpyruvate] | -0.5146 | 0.3896 | – | –
71 | O=S(=O)(O)C(F)(F)C(F)(F)C(F)(F)C(F)(F)C(F)(F)C(F)(F)C(F)(F)C(F)(F)F [perfluorooctanesulfonate (PFOS)] | -1.358 | – | – | –
72 | CCCCCCCCCCC(O)CC(=O)O (centres unmarked) [3-hydroxytridecanoate] | – | 0.1375 | – | –
73 | CCCCC/C=C\C/C=C\C/C=C\C/C=C\CCCC(=O)O[C@H](COC(=O)CCCCCCCCCCCCCCC)COP(=O)([O-])OCC[N+](C)(C)C | – | 0 | – | 0.1375
74 | O=C(O)CNC(=O)c1ccc(O)cc1 [4-hydroxyhippurate] | – | – | – | -0.152
